Test results from PubChem BioAssay (NCATS).
Inconclusive means that the source gave no clear call. Such entries were picked first, then a sample of the others. For some assays here: Where the call is inconclusive, the potency comes from a doubtful curve fit. Active and inactive are the calls of the source. Unless noted, the call rests on the fitted dose curve; in most records, active means well fitted curve in the direction sought with a large enough effect; inconclusive means small, poorly fitted or top-dose-only effect, or another doubt; inactive means no such curve, though single readings can be large; an effect the other way counts as inactive or inconclusive.

The chains behind the UniProt entries cited, without tags or fusion partners. Where a name states a change or a piece, a line headed by the entry shows the natural chain unless it says otherwise.
UniProt P08482: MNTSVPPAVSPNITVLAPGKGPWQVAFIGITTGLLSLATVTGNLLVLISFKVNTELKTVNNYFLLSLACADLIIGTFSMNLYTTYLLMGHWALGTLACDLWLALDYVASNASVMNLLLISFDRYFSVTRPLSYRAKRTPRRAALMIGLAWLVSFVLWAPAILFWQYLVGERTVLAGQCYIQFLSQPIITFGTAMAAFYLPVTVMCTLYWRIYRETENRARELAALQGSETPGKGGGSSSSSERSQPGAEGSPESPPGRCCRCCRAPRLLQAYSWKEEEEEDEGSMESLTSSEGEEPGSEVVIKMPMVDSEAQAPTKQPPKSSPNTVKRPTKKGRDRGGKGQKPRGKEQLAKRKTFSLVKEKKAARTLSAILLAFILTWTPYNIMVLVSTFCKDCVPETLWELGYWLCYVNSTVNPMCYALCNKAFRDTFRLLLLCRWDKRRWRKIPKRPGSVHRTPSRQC
UniProt O15648: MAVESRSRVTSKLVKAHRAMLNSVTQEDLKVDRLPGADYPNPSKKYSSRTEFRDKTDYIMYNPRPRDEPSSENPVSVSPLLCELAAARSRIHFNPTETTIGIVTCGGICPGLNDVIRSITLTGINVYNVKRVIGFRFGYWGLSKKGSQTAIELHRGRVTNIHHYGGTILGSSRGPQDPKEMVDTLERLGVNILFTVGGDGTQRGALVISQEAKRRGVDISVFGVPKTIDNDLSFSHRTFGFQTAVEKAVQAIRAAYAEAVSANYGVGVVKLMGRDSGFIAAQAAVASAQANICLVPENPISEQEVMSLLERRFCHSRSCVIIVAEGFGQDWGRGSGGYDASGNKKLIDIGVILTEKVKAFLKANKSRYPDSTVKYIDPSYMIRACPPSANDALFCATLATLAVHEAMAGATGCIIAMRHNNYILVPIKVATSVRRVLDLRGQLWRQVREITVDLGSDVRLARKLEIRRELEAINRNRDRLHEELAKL
UniProt P83916, whole entry, looked up: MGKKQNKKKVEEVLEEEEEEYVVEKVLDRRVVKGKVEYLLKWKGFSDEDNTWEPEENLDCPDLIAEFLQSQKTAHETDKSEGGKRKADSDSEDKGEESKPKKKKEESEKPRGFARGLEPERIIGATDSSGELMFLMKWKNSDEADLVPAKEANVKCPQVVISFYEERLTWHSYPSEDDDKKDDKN
UniProt P21728, whole entry, looked up: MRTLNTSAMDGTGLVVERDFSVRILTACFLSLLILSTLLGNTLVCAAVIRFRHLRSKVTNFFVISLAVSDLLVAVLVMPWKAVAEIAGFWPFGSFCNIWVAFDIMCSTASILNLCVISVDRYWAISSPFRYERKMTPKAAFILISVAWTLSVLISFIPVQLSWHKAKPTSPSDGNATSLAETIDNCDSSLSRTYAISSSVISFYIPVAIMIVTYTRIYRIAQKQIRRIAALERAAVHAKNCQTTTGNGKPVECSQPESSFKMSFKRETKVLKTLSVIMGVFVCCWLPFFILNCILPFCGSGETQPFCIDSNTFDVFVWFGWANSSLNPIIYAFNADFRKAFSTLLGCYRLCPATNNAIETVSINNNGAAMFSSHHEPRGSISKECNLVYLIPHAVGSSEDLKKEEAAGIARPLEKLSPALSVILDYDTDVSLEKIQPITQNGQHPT

Tests used:
[1] = Stat Signaling Pathway (AID 446; active means well fitted curve in either direction with a large enough effect, not every such curve was filed as active; inconclusive means small, poorly fitted or top-dose-only effect, or another doubt;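 further: ME-180 cervical cancer cells given 40 pM IL-6 alongside compound; SIE-controlled beta-lactamase reporter measured as 460/530 nm FRET emission ratio; on the % scale 0 is the no-effect control and ±100 the full control effect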); details: ME-180 SIE beta-lactamase reporter, IL-6 stimulated, 5 h; at 38 µM (top of the series) unless noted
In short: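 Screening format detects activators and inhibitors alike: ME-180 SIE-bla cells stimulated at 40 pM IL-6 for 5 hrs with compound, then dual-emission beta-lactamase read at 405 nm excitation.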

[2] = molecular target: Mitogen-activated protein kinase 10 (Mus musculus) (UniProt Q61831); assay: JNK3 AlphaScreen Assay (AID 530; active means well fitted curve in either direction with a large enough effect, not every such curve was filed as active; inconclusive means small, poorly fitted or top-dose-only effect, or another doubt;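 further: kinase came from lysate of stimulated human HepG2 cells; signal reports phosphorylation of biotinylated GST-cJun 1-79 at Ser73 with 10 µM ATP; on the % scale 0 is the no-effect control and ±100 the full control effect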); details: JNK3 lysate, c-Jun phosphorylation; activity change, negative = inhibition: at 57.1 µM (top of the series)
In short: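 Pre-activated (IL-1β/TNFα) JNK3 in HepG2 lysates phosphorylates biotin-GST-cJun(1-79), 10 uM ATP; anti-phospho-cJun(Ser73) AlphaScreen read at room temperature, pH 7.6 Tris buffer. Compounds pre-incubated 15 min as titrations.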

[3] = qHTS Assay for Identification of Small Molecule Antagonists for NFkB Signaling Pathway (AID 895; active means well fitted inhibition curve with a large enough effect in the signal ratio, with a control signal flat, not every such curve was filed as active; inconclusive means small, poorly fitted or top-dose-only effect, or effect the other way, or a change in a side signal; the % refers to the signal ratio; further: on the % scale 0 is the no-effect control and ±100 the full control effect); details: NFkB beta-lactamase reporter cells, FRET ratio 460/530; activity change, negative = inhibition: at 38.3 µM (top of the series) unless noted
In short: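 ME-180 NFkB-bla cells (beta-lactamase under NFkB response element), plated overnight, treated with compound then 10 pM TNF alpha (about EC50) for 5 hrs at 37 C. LiveBLAzer FRET read at 460/530 nm emission, 405 nm excitation.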

[4] = qHTS Assay for Identification of Small Molecule Agonists for Thrombopoietin (TPO) Signaling Pathway (AID 917); further: on the % scale 0 is the no-effect control and ±100 the full control effect
In short: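 IL-3-dependent murine pro-B Ba/F3 cells, stably transfected with human TPO receptor and GpIIb-promoter luciferase, are incubated 24 hrs at 37 C with test compound and 26 pM TPO; luciferase signal is read after 10 min at room temperature.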

[5] = qHTS Assay for Identification of Small Molecule Antagonists for Thrombopoietin (TPO) Signaling Pathway (AID 918); details: TPO-dependent cell signaling reporter, antagonist mode; activity change, negative = inhibition: at 38.5 µM (top of the series)
In short: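 Murine Ba/F3 cells expressing human TPO receptor and a Glycoprotein IIb promoter-luciferase reporter, IL-3-starved overnight, treated with compound plus TPO at EC50 (26 pM final). After 24 h at 37 C, luminescence read to detect inhibitors.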

[6] = molecular target: Muscarinic acetylcholine receptor M1 (Rattus norvegicus) (UniProt P08482); assay: qHTS Assay for Antagonists of Acetylcholine Muscarinic M1 Receptor: Kinetic Measurement of Intracellular Calcium Response (AID 943); further: nearly all actives have a fitted effect of over 75% in size
In short: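 CHO cells expressing rat M1 receptor, Fluo-4 loaded, preincubated 10 min with compound, then stimulated with EC80 carbachol (100 nM final). Kinetic calcium fluorescence over 4 min; response taken as peak over basal signal.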

[7] = molecular target: Muscarinic acetylcholine receptor M1 (Rattus norvegicus) (UniProt P08482); assay: qHTS Assay for Antagonists of Acetylcholine Muscarinic M1 Receptor: Measurement of IP-One Response (AID 944); further: nearly all actives have a fitted effect of over 75% in size
[8] = qHTS for differential inhibitors of proliferation of Plasmodium falciparum line 7G8 (AID 1815);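 further: potency means the concentration at half of the fitted maximal effect; parasite growth measured after three days of incubation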
[9] = qHTS for differential inhibitors of proliferation of Plasmodium falciparum line GB4 (AID 1816); details: Potency: Plasmodium falciparum GB4 proliferation inhibition;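 further: potency means the concentration at half of the fitted maximal effect; parasite growth measured after 72 h incubation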
[10] = qHTS for differential inhibitors of proliferation of Plasmodium falciparum line 3D7 (AID 1876); further: potency means the concentration at half of the fitted maximal effect
[11] = qHTS for differential inhibitors of proliferation of Plasmodium falciparum line D10 (AID 1877);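 further: potency means the concentration at half of the fitted maximal effect; parasites grown with compound for 72 h before DNA staining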
[12] = qHTS for differential inhibitors of proliferation of Plasmodium falciparum line Dd2 (AID 1882); details: Potency: Plasmodium falciparum Dd2 proliferation inhibition;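 further: plate controls were DMSO vehicle for no effect and 0.29 µM artemisinin for full effect; nearly all actives have a fitted effect of over 65% in size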
In short: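 Dd2-infected erythrocytes (0.3% parasitemia, 2.5% hematocrit final) incubated with compound 72 h at 37 C, 5% CO2; lysed with saponin/Triton buffer containing SYBR Green I, incubated overnight in the dark, then read by fluorescence (485/535 nm). Normalized to 0.29 uM artemisinin and DMSO.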

[13] = qHTS for differential inhibitors of proliferation of Plasmodium falciparum line W2 (AID 1883); details: Potency: Plasmodium falciparum W2 proliferation inhibition;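 further: potency means the concentration at half of the fitted maximal effect; parasites grown with compound for 72 h before lysis and staining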
[14] = qHTS for differential inhibitors of proliferation of Plasmodium falciparum line HB3 (AID 1886); details: Potency: Plasmodium falciparum HB3 proliferation inhibition;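 further: potency means the concentration at half of the fitted maximal effect; parasites grown with compound for 72 h before SYBR Green readout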
[15] = molecular target: ATP-dependent 6-phosphofructokinase (Trypanosoma brucei brucei) (UniProt O15648); assay: qHTS Validation Assay to Find Inhibitors of T. brucei phosphofructokinase (AID 485368); further: potency means the concentration at half of the fitted maximal effect
In short: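 Enzyme reaction in triethanolamine buffer pH 8.0 with 5 mM MgCl2, 0.01% Tween20 and 0.1% BSA; PFK 1.25 nM, F6P 0.5 mM, ATP 0.1 mM, 45 min RT. ADP quantified by ADP-Glo.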

[16] = Quantitative high throughput screen for delayed death inhibitors of the malarial parasite plastid, 96 hour incubation (AID 488745); further: potency means the concentration at half of the fitted maximal effect; nearly all actives have a fitted effect of over 70% in size
In short: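 Luciferase-expressing P. falciparum in erythrocytes (2% hematocrit, 0.1% parasitemia) incubated with compound for 96 h at 37 C, 5% CO2, in RPMI 1640 with 0.5% Albumax. Growth inhibition read as decreased luminescence.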

[17] = Quantitative high throughput screen for delayed death inhibitors of the malarial parasite plastid, 48 hour incubation (AID 488752); further: potency means the concentration at half of the fitted maximal effect; nearly all actives have a fitted effect of over 65% in size
In short: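 Erythrocytes infected with firefly luciferase-expressing P. falciparum (2% hematocrit, 0.1% parasitemia) cultured with compound for 48 h at 37 C, 5% CO2, in RPMI 1640/0.5% Albumax. Growth inhibition read as loss of luminescence.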

[18] = molecular target: Chromobox protein homolog 1 (Homo sapiens) (UniProt P83916); assay: qHTS Validation Assay for Inhibitors of HP1-beta Chromodomain Interactions with Methylated Histone Tails (AID 488953);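 further: loss of AlphaScreen luminescence from HP1-beta binding biotinylated H3K9me3 peptide; on the % scale 0 is the no-effect control and ±100 the full control effect; nearly all actives have a fitted effect of over 50% in size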
In short: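 HP1-beta (50 nM) preformed 30 min with biotinylated H3(1-18)K9me3 peptide (50 nM) in PBS pH 7.4, 0.01% Tween-20. Compounds added for 30 min at room temperature. Complex disruption read by AlphaScreen with streptavidin donor/nickel chelate acceptor beads (10 ug/mL each).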

[19] = molecular target: D(1A) dopamine receptor (Homo sapiens) (UniProt P21728); assay: HTS Assay for Allosteric Agonists of the Human D1 Dopamine Receptor: Primary Screen for Potentiators (AID 488982); further: potency means the concentration at half of the fitted maximal effect
In short: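 Tetracycline-induced HEK293 Trex D1 cells with forced coupling to calcium, loaded with no-wash calcium dye; kinetic fluorescence read 180 s after compound addition for agonism, then a further 180 s after an EC20 dopamine challenge for potentiation.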

[20] = HTS Assay for Allosteric Antagonists of the Human D2 Dopamine Receptor: Hit Validation in HTRF (AID 624455)
In short: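 Hit validation in cells stably expressing the D1 dopamine receptor, run in HTRF format. Compounds were tested for their ability to inhibit the D1-mediated response.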

[21] = qHTS to identify inhibitors of the type 1 interferon - major histocompatibility complex class I in skeletal muscle: primary screen against the NCATS LOPAC collection (AID 1347405)
In short: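 CRISPR-engineered immortalized human myoblasts (C25cl48) with HiBiT fused to endogenous HLA-B*08:01, stimulated with 4 ng/ml IFN-beta. LOPAC compounds tested as a 7-point 1:4.3 titration (top 46 uM final), 24 h at 37 C; lytic HiBiT luminescence read.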

[22] = qHTS for inhibitors of Rabies Virus screened against the NCATS CANVASS Library (AID 1347402; calls by dose curve; on activity change, negative = inhibition: 0% is about no effect)

OCc1cnc[nH]1
inactive: Potency [3] | Potency [4] | Potency [6] | Potency [7] | Potency [12] | Potency [18] | Potency [20] | Potency [21]
inconclusive: activity, negative = inhibition [1] 51% [activator] | activity change, negative = inhibition [2] -15.2% | activity change, negative = inhibition [5] -12.6% [phenotype inactive] | Potency [8] 7.94 µM [inhibitor, partial curve] | Potency [10] 8.91 µM [inhibitor, partial curve] | Potency [11] 10 µM [inhibitor, partial curve, poor fit] | Potency [13] 7.08 µM [inhibitor, partial curve] | Potency [15] 8.49 µM [falling, single point] | Potency [16] 18.5 µM [inhibitor, single point] | Potency [17] 18.5 µM [inhibitor, single point] | Potency [19] 1.03 µM [activator, single point]
active: Potency [9] 7.94 µM | Potency [14] 10 µM

O=c1cc(-c2ccc(O)cc2)oc2cc(O)c([C@@H]3OC(CO)[C@H](O)[C@@H](O)[C@H]3O)c(O)c12 (stereo partly specified)
inconclusive: Potency [22] 20.8 µM [inhibitor, single point]

COc1ccc([C@@H]2CC(=O)c3c(cc(O)c(C/C=C(\C)CCC=C(C)C)c3O)O2)cc1
inactive: activity change, negative = inhibition [22] -26.8% [at 9.14 µM]

C=C[C@@](C)(O)CC[C@@H]1[C@@]2(C)CCCC(C)(C)[C@@H]2CC[C@@]1(C)O
inconclusive: Potency [22] 18.5 µM [inhibitor, partial curve, poor fit]

C/C=C/C=C/C1(O)C2C=C3C(=O)CC45C(=O)C(O)=C(C)C(=O)C4C1C1(C(=O)C(O)=C(C)C(=O)C351)C2C (stereo unspecified)
inactive: Potency [22]

COc1cc(/C=C/C(=O)OC[C@@H](Cc2ccc(O)c(OC)c2)[C@@H](COC(=O)/C=C/c2ccc(O)c(OC)c2)Cc2ccc(O)c(OC)c2)ccc1O
inconclusive: Potency [22] 4.65 µM [inhibitor, full curve, poor fit]
